# PubChem BioAssay AID743454, Peter MacCallum Cancer Centre, 2014
# Test: 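Genes whose loss kills vorinostat-resistant colon cancer cells under vorinostat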 (primary screen)
# System: human HCT116-VR colon cancer cells, selected for vorinostat resistance
# Knock-down reagent: siRNA pool against human genes, 40 nM siRNA pool
# Duration: vorinostat for 24 h, read-out about 72 h after transfection
# Challenge: vorinostat at 2.5 µM final
# Detection: 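Two measures, CellTiter-Fluor viability and luminescent caspase 3/7 activity, each as fold change against same-plate mock wells, mean of duplicates, then screen-wide robust z-score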
# Direction: viability robust z-score: higher = more viable cells than screen typical; caspase robust z-score: higher = more caspase 3/7 activity than screen typical
# Hit rule: 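Hits are knock-downs in viability class RV1/RV2 or caspase class CA1/CA2, excluding ones that killed cells in the no-drug cell-count arm; hits then retested with single siRNAs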
# Shown is an unselected part of about 18,000 reagents tested. Of all reagents, 450 (2.5%) got an active call. 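Single biological run; no consistent viability z cut-off exists, so the class columns, not z-scores, define the calls.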 The numbers tell different reagents against one gene apart.
target,reagent no.,viability hit class,caspase hit class,viability robust z-score,caspase robust z-score,call
SAMTOR (S-adenosylmethionine sensor upstream of mTORC1),1,no change,no change,-1.39,-0.09,inactive
SKOR2 (SKI family transcriptional corepressor 2),1,no change,no change,-0.91,3.12,inactive
TEAD1 (TEA domain transcription factor 1),1,no change,no change,-0.84,-0.26,inactive
TMPO (thymopoietin),1,no change,no change,-0.31,0.27,inactive
APOBEC3D (apolipoprotein B mRNA editing enzyme catalytic subunit 3D),1,no change,no change,-1.2,0.98,inactive
TSSK4 (testis specific serine kinase 4),1,no change,no change,1.06,-0.42,inactive
WNT9B (Wnt family member 9B),1,no change,no change,-0.12,2.05,inactive
GAGE7 (G antigen 7),1,no change,no change,-0.5,-0.12,inactive
PAPOLB (poly(A) polymerase beta),1,no change,no change,1.43,-0.74,inactive
OR1J2 (olfactory receptor family 1 subfamily J member 2),1,no change,no change,0.14,0.3,inactive
PODN (podocan),1,no change,no change,2.19,0.22,inactive
TIMM10B (translocase of inner mitochondrial membrane 10B),1,no change,no change,-0.57,3.16,inactive
TAF4B (TATA-box binding protein associated factor 4b),1,no change,no change,0.02,-1.09,inactive
"NAA80 (N-alpha-acetyltransferase 80, NatH catalytic subunit)",1,no change,no change,1.5,-0.8,inactive
JAGN1 (jagunal vesicle mediated transporter 1),1,no change,no change,-0.36,0.33,inactive
SOCS1 (suppressor of cytokine signaling 1),1,no change,no change,0.34,1.41,inactive
GSKIP (GSK3B interacting protein),1,no change,no change,-2.3,0.8,inactive
IVNS1ABP (influenza virus NS1A binding protein),1,no change,no change,-0.96,1.54,inactive
TINAGL1 (tubulointerstitial nephritis antigen like 1),1,no change,no change,-0.4,0.48,inactive
CT47A7 (cancer/testis antigen family 47 member A7),1,no change,no change,0.26,1.14,inactive
SPINK1 (serine peptidase inhibitor Kazal type 1),1,no change,no change,0.74,0.27,inactive
MAGED1 (MAGE family member D1),1,no change,no change,0.09,0.68,inactive
"ARAP3 (ArfGAP with RhoGAP domain, ankyrin repeat and PH domain 3)",1,no change,no change,0.24,-0.18,inactive
DHPS (deoxyhypusine synthase),1,no change,no change,0.78,3.96,inactive
SOS1 (SOS Ras/Rac guanine nucleotide exchange factor 1),1,no change,no change,-0.97,-0.34,inactive

In a second layout: results already given
TAF4B (TATA-box binding protein associated factor 4b) — viability hit class = no change; caspase hit class = no change; viability robust z-score = 0.02; caspase robust z-score = -1.09; call = inactive
NAA80 (N-alpha-acetyltransferase 80, NatH catalytic subunit) — viability hit class = no change; caspase hit class = no change; viability robust z-score = 1.5; caspase robust z-score = -0.8; call = inactive
JAGN1 (jagunal vesicle mediated transporter 1) — viability hit class = no change; caspase hit class = no change; viability robust z-score = -0.36; caspase robust z-score = 0.33; call = inactive
SOCS1 (suppressor of cytokine signaling 1) — viability hit class = no change; caspase hit class = no change; viability robust z-score = 0.34; caspase robust z-score = 1.41; call = inactive
GSKIP (GSK3B interacting protein) — viability hit class = no change; caspase hit class = no change; viability robust z-score = -2.3; caspase robust z-score = 0.8; call = inactive
IVNS1ABP (influenza virus NS1A binding protein) — viability hit class = no change; caspase hit class = no change; viability robust z-score = -0.96; caspase robust z-score = 1.54; call = inactive
TINAGL1 (tubulointerstitial nephritis antigen like 1) — viability hit class = no change; caspase hit class = no change; viability robust z-score = -0.4; caspase robust z-score = 0.48; call = inactive
CT47A7 (cancer/testis antigen family 47 member A7) — viability hit class = no change; caspase hit class = no change; viability robust z-score = 0.26; caspase robust z-score = 1.14; call = inactive
SPINK1 (serine peptidase inhibitor Kazal type 1) — viability hit class = no change; caspase hit class = no change; viability robust z-score = 0.74; caspase robust z-score = 0.27; call = inactive
MAGED1 (MAGE family member D1) — viability hit class = no change; caspase hit class = no change; viability robust z-score = 0.09; caspase robust z-score = 0.68; call = inactive
ARAP3 (ArfGAP with RhoGAP domain, ankyrin repeat and PH domain 3) — viability hit class = no change; caspase hit class = no change; viability robust z-score = 0.24; caspase robust z-score = -0.18; call = inactive
DHPS (deoxyhypusine synthase) — viability hit class = no change; caspase hit class = no change; viability robust z-score = 0.78; caspase robust z-score = 3.96; call = inactive

The listing continues.
target,reagent no.,viability hit class,caspase hit class,viability robust z-score,caspase robust z-score,call
SESTD1 (SEC14 and spectrin domain containing 1),1,no change,no change,0.55,-0.02,inactive
CDK5 (cyclin dependent kinase 5),1,no change,no change,-0.06,1.31,inactive
ISCU (iron-sulfur cluster assembly enzyme),1,no change,no change,-0.92,0.38,inactive
FCN2 (ficolin 2),1,no change,no change,0.68,0.98,inactive
IL36A (interleukin 36 alpha),1,no change,no change,-0.41,0.49,inactive
"RABL6 (RAB, member RAS oncogene family like 6)",1,no change,no change,0.32,0.4,inactive
RPS6 (ribosomal protein S6),1,no change,no change,-3.98,-1.62,inactive
PAXIP1 (PAX interacting protein 1),1,no change,no change,0.92,-0.66,inactive
SPRED3 (sprouty related EVH1 domain containing 3),1,no change,CA1 (caspase activation),-2.7,8.13,active
DOC2B (double C2 domain beta),1,no change,no change,0.1,-0.38,inactive
DYNLT2 (dynein light chain Tctex-type 2),1,no change,no change,0.45,0.11,inactive
COPS7A (COP9 signalosome subunit 7A),1,no change,no change,-0.62,1.69,inactive
MPHOSPH10 (M-phase phosphoprotein 10),1,no change,no change,-1.19,-0.92,inactive
"ST3GAL5 (ST3 beta-galactoside alpha-2,3-sialyltransferase 5)",1,no change,no change,1.5,0.28,inactive
PCGF6 (polycomb group ring finger 6),1,RV2 (reduced viability),CA2 (caspase activation),-4.14,9.66,active
TMEM154 (transmembrane protein 154),1,no change,no change,0.02,-0.04,inactive
CRB1 (crumbs cell polarity complex component 1),1,no change,no change,2.38,0.32,inactive
"CTSL3P (cathepsin L family member 3, pseudogene)",1,no change,no change,1.06,-0.66,inactive
IQCC (IQ motif containing C),1,no change,no change,0.24,0.3,inactive
GFRA2 (GDNF family receptor alpha 2),1,no change,no change,-0.1,-0.11,inactive
RFX4 (regulatory factor X4),1,no change,no change,1.21,1.38,inactive
TINF2 (TERF1 interacting nuclear factor 2),1,no change,no change,-1.65,0.27,inactive
CFAP74 (cilia and flagella associated protein 74),1,no change,no change,-0.02,-0.55,inactive
CFAP74 (cilia and flagella associated protein 74),2,no change,no change,-0.4,2.33,inactive
NKAIN3 (sodium/potassium transporting ATPase interacting 3),1,no change,no change,0.8,1.86,inactive
STAU2 (staufen double-stranded RNA binding protein 2),1,no change,no change,-0.84,-0.8,inactive
DALRD3 (DALR anticodon binding domain containing 3),1,no change,no change,0.04,2.84,inactive
IPO8 (importin 8),1,no change,no change,0.48,-0.28,inactive
TSPO (translocator protein),1,no change,no change,0.12,1.65,inactive
PCSK6 (proprotein convertase subtilisin/kexin type 6),1,no change,no change,0.41,-0.14,inactive
CFAP300 (cilia and flagella associated protein 300),1,no change,no change,0.03,-0.16,inactive
"ASAP2 (ArfGAP with SH3 domain, ankyrin repeat and PH domain 2)",1,no change,no change,-0.38,1.4,inactive
"TEF (TEF transcription factor, PAR bZIP family member)",1,no change,no change,0.96,-0.24,inactive
VIP (vasoactive intestinal peptide),1,no change,no change,-1.07,-0.97,inactive
CALM3 (calmodulin 3),1,no change,CA2 (caspase activation),-1.4,6.03,active
ZNF296 (zinc finger protein 296),1,no change,no change,0.72,-1.17,inactive
TFPT (TCF3 fusion partner),1,no change,no change,-1.75,0.16,inactive
STAB2 (stabilin 2),1,no change,no change,0.36,0.26,inactive
IL4R (interleukin 4 receptor),1,no change,no change,0.27,0.7,inactive
ETNPPL (ethanolamine-phosphate phospho-lyase),1,no change,no change,-0.18,-0.45,inactive
CCDC150 (coiled-coil domain containing 150),1,no change,no change,0.55,-0.94,inactive
SKP1 (S-phase kinase associated protein 1),1,no change,no change,0.2,3,inactive
DSPP (dentin sialophosphoprotein),1,no change,no change,-2.46,2.27,inactive
ZNF658B (zinc finger protein 658B (pseudogene)),1,no change,no change,-0.24,1.17,inactive
LILRA4 (leukocyte immunoglobulin like receptor A4),1,no change,no change,0.1,-0.06,inactive
ERP27 (endoplasmic reticulum protein 27),1,no change,no change,-0.5,-1.12,inactive
MT1HL1 (metallothionein 1H like 1),1,no change,no change,0.95,-0.62,inactive
CUL5 (cullin 5),1,no change,no change,1.58,1.17,inactive
